{"sequences": {"note": "The chains behind the UniProt entries cited, without tags or fusion partners.", "UniProt O15379, whole entry, looked up": "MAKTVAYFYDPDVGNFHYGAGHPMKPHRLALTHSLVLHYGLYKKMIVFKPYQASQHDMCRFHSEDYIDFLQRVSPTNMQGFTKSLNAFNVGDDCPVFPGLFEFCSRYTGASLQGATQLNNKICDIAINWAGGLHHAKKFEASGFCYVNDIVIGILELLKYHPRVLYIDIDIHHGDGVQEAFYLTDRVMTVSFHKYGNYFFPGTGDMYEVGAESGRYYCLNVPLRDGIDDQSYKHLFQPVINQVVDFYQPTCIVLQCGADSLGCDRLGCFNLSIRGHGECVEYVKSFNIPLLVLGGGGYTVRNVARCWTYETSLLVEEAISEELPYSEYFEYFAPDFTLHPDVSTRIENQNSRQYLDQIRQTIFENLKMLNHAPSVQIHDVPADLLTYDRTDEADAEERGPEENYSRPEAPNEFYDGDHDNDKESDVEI"}, "source": "PubChem BioAssay AID2718", "about": "(Broad Institute, 2010)", "note": "Among all 320,000 compounds or so, about 480 (0.15%) were called active. The shares of active, inactive and inconclusive entries below differ from those in the screen. Rule as the data show it: active = inhibition above about 26% (passing the limit was not always enough); inconclusive = no clear call, values can overlap the other calls."}
{"target": "Histone deacetylase 3 (Homo sapiens) (UniProt O15379)", "experiment": "HDAC3 deacetylase inhibitors, primary screen, biochemical, fluorescence, cell-free homogeneous (AID 2718)", "settings": "recombinant HDAC3, fluorogenic peptide/trypsin coupled, at 8.3 µM, hits give high values"}
{"compound": "Cc1nc(NC(=O)COc2ccccc2)sc1C(=O)Nc1ccccc1", "inhibition": "inconclusive: 33.4%"}
{"compound": "O=C(NCc1cccnc1)Nc1cccc(C(F)(F)F)c1", "inhibition": "inconclusive: 27.7%"}
{"compound": "O=C(CCC1CCCC1)Nc1ccc(C(=O)NCc2cccnc2)cc1", "inhibition": "inconclusive: 13.8%"}
{"compound": "Cc1ccc(C2CC(=O)N3CN(Cc4ccco4)CSC3=C2C#N)cc1", "note": "(centres undefined)", "inhibition": "inconclusive: 25.5%"}
{"compound": "N#Cc1cc([N+](=O)[O-])ccc1N1CCN(c2ccccc2O)CC1", "inhibition": "inconclusive: 13.7%"}
{"compound": "Cc1cc(C)nc(-n2nc(C)c(Oc3ccccc3O)c2C)n1", "inhibition": "inconclusive: 20.4%"}
{"compound": "CCCn1c(=O)c2sccc2n2c(CCCC(=O)NC3CCN(Cc4ccccc4)CC3)nnc12", "inhibition": "inactive: 3.41%"}
{"compound": "CC(=O)c1ccc(Cc2ncc(C(F)(F)F)cc2Cl)s1", "inhibition": "inconclusive: 14.4%"}
{"compound": "COCCNCC(=O)Nc1ccc(OC(F)(F)F)cc1", "inhibition": "inconclusive: 14.8%"}
{"compound": "COc1ccc(C2C(C(C)=O)=C(O)C(=O)N2c2ccc(O)cc2)cc1", "note": "(centres undefined)", "inhibition": "inactive: -2.44%"}
{"compound": "COc1ccc(OC)c(C2=Nn3c(nnc3C3CCCCC3)SC2)c1", "inhibition": "inconclusive: 16.8%"}
{"compound": "COCCSc1ccccc1C(=O)NCc1ccco1", "inhibition": "inconclusive: 17%"}
{"compound": "CN=c1nc(-c2ccccc2)n(-c2ccccc2)s1", "inhibition": "active: 55.8%"}
{"compound": "Cc1sc2nc(CSCC(=O)N(CCC#N)c3ccccc3)[nH]c(=O)c2c1C", "inhibition": "inconclusive: 19.2%"}
{"compound": "CC(C)Oc1ccc(Cl)cc1Nc1nc(NCCO)nc(N2CCCC2)n1", "inhibition": "active: 28.1%"}
{"compound": "O=C(NN=C1CCCC1)c1n[nH]c2c1CCC2", "inhibition": "inconclusive: 15.1%"}
{"compound": "O=C(Nc1ncccc1O)c1ccc(S(=O)(=O)N2CCCCCC2)cc1", "inhibition": "inconclusive: 63.3%"}
{"compound": "CCN1/C(=C/C=C/c2oc3ccc4ccccc4c3[n+]2CC)Oc2ccc3ccccc3c21", "inhibition": "inconclusive: 26.3%"}
{"compound": "CCOC(=O)c1ccc(N=c2sc(C(=O)OC)cc(=O)n2-c2ccc(C(=O)OCC)cc2)cc1", "inhibition": "inconclusive: 16%"}
{"compound": "CN(C)CCCNc1cc(C(C)(C)C)nc2c(-c3ccccc3)cnn12", "inhibition": "inconclusive: 27%"}
{"compound": "O=C(NCCc1ccccc1)c1ccc2[nH]c(=O)c(=O)[nH]c2c1", "inhibition": "inconclusive: 11.7%"}
{"compound": "CCOC(=O)N1CCN(C(=O)Cn2nc(C)n3nc(-c4ccc(OC)cc4)cc3c2=O)CC1", "inhibition": "inconclusive: 13.6%"}
{"compound": "CC(C)c1ccc(NC(=O)N2CCC(c3nc4ccccc4o3)CC2)cc1", "inhibition": "inconclusive: 31.3%"}
{"compound": "Cc1cc(C(=O)CSc2nnc(-c3ccc(F)cc3)o2)c(C)n1CC1COc2ccccc2O1", "note": "(centres undefined)", "inhibition": "inconclusive: 21.5%"}
{"compound": "CCN=C1S/C(=C\\c2ccc(N3CCOCC3)cc2C)C(=O)N1CC", "inhibition": "inconclusive: 20.4%"}
{"compound": "O=C(COc1ccc(Cl)cc1)Nc1ncccn1", "inhibition": "inconclusive: 15.9%"}
{"compound": "CCOC(=O)CSC1=NC(=O)CS1", "inhibition": "inconclusive: 31.4%"}
{"compound": "CC1CN(S(=O)(=O)c2ccc(NC(=O)c3ccco3)cc2)CC(C)O1", "note": "(centres undefined)", "inhibition": "inconclusive: 16.6%"}
{"compound": "O=C(CCCN1C(=O)/C(=C/c2ccccc2)SC1=S)Nc1ccccc1O", "inhibition": "inconclusive: 28.6%"}
{"compound": "CCC(C(=O)N1CCN(c2ncccn2)CC1)c1ccccc1", "note": "(centres undefined)", "inhibition": "inconclusive: 15.1%"}
{"compound": "COc1ccccc1C(=O)Nc1ccc(N2CCN(C(C)=O)CC2)cc1", "inhibition": "inactive: 2.73%"}
{"compound": "COc1ccc2c(c1)O[C@@H](c1cccc(C(F)(F)F)c1)[C@H](OC(=O)NCCc1ccc(OC)c(OC)c1)C2=O", "inhibition": "inconclusive: 23.2%"}
{"compound": "Cc1cc(C(=O)OCC(=O)Nc2cc(C)on2)c2ccccc2n1", "inhibition": "inconclusive: 15.7%"}
{"compound": "CCOC(=O)c1ccccc1NC(=O)C(C)Oc1ccccc1", "note": "(centres undefined)", "inhibition": "inconclusive: 15.7%"}
{"compound": "CCOC(=O)c1cc(C(=O)c2cc(Cl)ccc2O)coc1=N", "inhibition": "inconclusive: 21.8%"}
{"compound": "O=c1ccc2cc3c([nH]c4ccc(Br)cc43)oc-2c1O", "inhibition": "active: 37.7%"}
{"compound": "COc1cccc2cc(C(C)=O)c(=O)oc12", "inhibition": "inconclusive: 20.2%"}
{"compound": "CC(C)[C@H](NC(=O)N1CCn2c1nc1ccccc12)C(=O)NCc1ccco1", "inhibition": "inconclusive: 14.7%"}
{"compound": "O=[N+]([O-])c1ccc(N2CCCC2)nc1", "inhibition": "inactive: -0.711%"}
{"compound": "CCC(C)NCCOc1ccc(C(C)(C)c2ccccc2)cc1", "note": "(centres undefined)", "inhibition": "inactive: 1.3%"}
{"compound": "CCc1ccc(S(=O)(=O)Nc2ccc(O)c3c(=O)cc(-c4ccccc4Cl)oc23)cc1", "inhibition": "inactive: 4.12%"}
{"compound": "NC(=O)[C@@H]1CC2(CC(c3cccc(NC(=O)CC(c4ccccc4)c4ccccc4)c3)=NO2)CN1C(=O)c1ccc(Cl)cc1", "note": "(some centres undefined)", "inhibition": "inconclusive: 21.3%"}
{"compound": "O=P(COCCOCCOCP(=O)(c1ccccc1)c1ccccc1)(c1ccccc1)c1ccccc1", "inhibition": "inconclusive: 29.2%"}
{"compound": "Cc1ccc(S(=O)(=O)NCC2(c3ccccc3)CCN(C)CC2)cc1", "inhibition": "inconclusive: 33.4%"}
{"compound": "Cc1nc2ccccc2c(N)c1C(=O)/C=C/c1ccccc1", "inhibition": "inactive: 1.06%"}
{"compound": "Cc1ccc(S(=O)(=O)Nc2ccc(NC(=O)Nc3cccc(C(F)(F)F)c3)cc2)cc1", "inhibition": "active: 31%"}
{"compound": "Cc1ccc(NC(=O)C2CC(=O)n3ncnc3N2)cc1", "note": "(centres undefined)", "inhibition": "inconclusive: 24.1%"}
{"compound": "COc1ccc(C2CC(=O)N3CN(c4ccc(C)c(Cl)c4)CSC3=C2C#N)cc1", "note": "(centres undefined)", "inhibition": "active: 51.2%"}
{"compound": "COc1ccc(NC(=O)CC2C(=O)N(C)C(=S)N2CCc2ccccc2)cc1", "note": "(centres undefined)", "inhibition": "inconclusive: 14.4%"}
{"compound": "Cc1ccc(-c2nc(Nc3ccccc3)n[nH]2)cc1", "inhibition": "inactive: -12.3%"}
{"compound": "CC(C)CCN1C(=O)c2ccc(C(=O)N3CCCCC3)cc2C1=O", "inhibition": "inactive: -1.75%"}
{"compound": "C=CCN(C(=O)CNC(=O)c1ccco1)C(C(=O)NC1CCCCC1)c1ccc(OC)cc1OC", "note": "(centres undefined)", "inhibition": "inconclusive: 15.2%"}
{"compound": "COc1ccc(C(=O)Nc2ccc(S(=O)(=O)N3CCCC3)cc2)cc1", "inhibition": "inconclusive: 19.1%"}
{"compound": "COc1cc(C(=O)N/N=C/c2coc3ccc(Cl)cc3c2=O)ccc1O", "inhibition": "active: 96.2%"}
{"compound": "COc1ccc(NC(=O)c2nnn(CC(=O)Nc3ccccc3OC)c2N)c(OC)c1", "inhibition": "inconclusive: 18.8%"}
{"compound": "CC(=O)c1c(C)[nH]c(C(=O)OCC(=O)c2ccc3c(c2)NC(=O)CO3)c1C", "inhibition": "inactive: -0.944%"}
{"compound": "COc1ccccc1C(=O)NC(=O)COC(=O)C1CCC1", "inhibition": "inconclusive: 15.8%"}
{"compound": "N/C(=N\\OC(=O)Cc1ccccc1)c1ccccc1Cl", "inhibition": "inactive: 1.68%"}
{"compound": "Cn1ccnc1SCC(=O)c1ccc(C#N)cc1", "inhibition": "active: 36.1%"}
{"compound": "CCOc1cc(/C=N/NC(N)=O)ccc1OC(=O)c1ccc(C)cc1", "inhibition": "inactive: 0.0504%"}
{"compound": "COC(=O)c1cc(C(=O)OC)cc(-n2c(C)cc(C=O)c2C)c1", "inhibition": "inconclusive: 24.6%"}
{"compound": "Cc1nc2ccc(C(C(F)(F)F)(C(F)(F)F)C(F)(F)F)cc2[nH]1", "inhibition": "active: 31.8%"}
{"compound": "CC(C)CN(C(=O)c1ccc(Br)o1)C1CCS(=O)(=O)C1", "note": "(centres undefined)", "inhibition": "inconclusive: 17.5%"}
{"compound": "COc1cccc(C(=O)N=c2sc3cc(S(C)(=O)=O)ccc3n2C)c1", "inhibition": "inactive: -13.2%"}
{"compound": "Cc1ccc(-c2nnc(N3CCN(C(=O)c4ccco4)CC3)c3ccccc23)cc1", "inhibition": "inconclusive: 25.9%"}
{"compound": "CCCNC(=O)CCn1nc(-c2ccc(Cl)cc2)c2ccccc2c1=O", "inhibition": "inactive: -0.77%"}
{"compound": "CCCc1nn2c(=O)cc(CSCC(=O)Nc3cccc(C)c3)nc2s1", "inhibition": "inconclusive: 18.9%"}
{"compound": "Cc1ccn2cc(-c3cccc(NC(=O)C(C)C)c3)nc2c1", "inhibition": "inconclusive: 17.7%"}
{"compound": "CCOc1ccc(S(=O)(=O)/N=C(/Nc2ccc(OC)cc2)c2ccccc2)cc1", "inhibition": "inconclusive: 26.7%"}
{"compound": "CCOc1ccc(NC(=O)CCC(=O)NNC(=O)c2ccc(Br)o2)cc1", "inhibition": "inconclusive: 13.5%"}
{"compound": "Cc1ccc(C(=O)CSc2nc(O)cc(=O)[nH]2)cc1C", "inhibition": "active: 29.8%"}
{"compound": "C/C(=N\\Nc1nc(C)cc(C)n1)c1ccc(C)o1", "inhibition": "inconclusive: 11.1%"}
{"compound": "O=C(c1ccc(COc2ccccc2Br)cc1)N1CCCCCC1", "inhibition": "inconclusive: 8.27%"}
{"compound": "O=C(Nc1cc(S(=O)(=O)N2CCCCC2)ccc1N1CCOCC1)c1ccc(C(F)(F)F)cc1", "inhibition": "inconclusive: 24.2%"}
{"compound": "C=CCn1c(CNS(=O)(=O)c2ccc(Br)cc2)n[nH]c1=S", "inhibition": "inconclusive: 23.1%"}
{"compound": "CC1(C)CC(=O)C(C2C3=C(CC(C)(C)CC3=O)Oc3ccccc32)=C(O)C1", "note": "(centres undefined)", "inhibition": "inactive: 0.403%"}
{"compound": "CC1CC(C)CN(C(=O)c2cc3cc(Br)cc(Br)c3o2)C1", "note": "(centres undefined)", "inhibition": "inactive: 6.25%"}
{"compound": "COc1ccc(S(=O)(=O)NC(C)C)cc1C(=O)N1CCOCC1", "inhibition": "inconclusive: 22.3%"}
{"compound": "Cc1ccc(S(=O)(=O)NCCCNS(=O)(=O)c2ccccc2[N+](=O)[O-])cc1", "inhibition": "inactive: 1.68%"}
{"compound": "C=CCn1c(COc2ccc(F)cc2)nnc1SCC(=O)N1CC(=O)Nc2ccccc21", "inhibition": "inactive: -3.96%"}
{"compound": "CC(=O)c1ccc(S(=O)(=O)Nc2ccc(-c3cn4c(n3)SCC4)cc2)cc1", "inhibition": "inconclusive: 26.5%"}
{"compound": "Cc1ccc2cc(/C=N/NC(=O)[C@@H]3CCCN3)c(Cl)nc2c1", "inhibition": "inconclusive: 11.5%"}
{"compound": "CC(C)(C)n1nnnc1C(c1cccs1)N(Cc1cccnc1)Cc1ccccc1Cl", "note": "(centres undefined)", "inhibition": "inconclusive: 18.3%"}
{"compound": "CCCCCCCCCCCCCCCC[N+](C)(C)CCN(Cc1ccc(OC)cc1)c1ncccn1", "inhibition": "active: 62.7%"}
{"compound": "CSc1ccccc1OCc1cc(C(=O)N2CCc3c(Cl)cccc3C2)no1", "inhibition": "inconclusive: 16.4%"}
{"compound": "CC(=O)c1ccc(-c2ccc(C(=O)NC3CCCCCC3)o2)cc1", "inhibition": "inactive: -7.58%"}
{"compound": "CCOc1ccc(C(=O)Nc2ccc(S(=O)(=O)N3C[C@@H]4C[C@@H](C3)c3cccc(=O)n3C4)cc2)cc1", "inhibition": "inactive: 4.26%"}
{"compound": "Cc1nn(C)cc1C(C(=O)NC1CCCCC1)N(C(=O)Cc1cccs1)c1ccc(C(C)C)cc1", "note": "(centres undefined)", "inhibition": "inactive: 1.11%"}
{"compound": "CON(c1nc(N(C)C)nc(N(C)C)n1)S(=O)(=O)c1ccccc1Cl", "inhibition": "inactive: 7.2%"}
